Laboratory results: PubChem BioAssay AID743121 (NCATS, 2013)

Screen: 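Genes whose silencing strengthens cell killing by camptothecin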 (primary screen)
System: MDA-MB-231 cells, a human breast cancer line
Reagent: single siRNA against human genes, 20 nM siRNA (0.8 pmol per well)
Timing: 120 h (drug added 48 h after transfection, read 72 h later)
Challenge: camptothecin 20 nM (about EC30) for 72 h; vehicle 0.1% DMSO in parallel plates
Detection: 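Cell viability by ATP luminescence (CellTiter-Glo) as % of non-targeting siRNA wells, and the log2 ratio of viability without drug over viability with camptothecin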
Direction: log2 vehicle/camptothecin viability: higher = stronger sensitisation to camptothecin
Call rule: 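Active genes have an RSA gene-level p-value below 0.001, computed from the ratios of their separate siRNAs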
The deposit covers about 26,000 reagents; this is a part drawn at random. In the full data, 167 (0.63%) were called active. 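Calls are per gene from RSA p-values that are not deposited; an individual active-marked siRNA can sensitise only weakly.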 Entries without a mark were called inactive. The numbers tell different reagents against one gene apart. Further read-outs or replicates are left out here.

log2 vehicle/camptothecin viability, by gene symbol and reagent
CD28: #1 0.1; #2 -0.141; #3 -0.291; #4 0.0969
FANCF: #1 0.185; #2 -0.00958; #3 -0.198; #4 -0.529
LGR4: #1 -0.142; #2 0.133; #3 -0.0247; #4 -0.234
LETMD1: #1 0.27; #2 0.465; #3 0.0777; #4 -0.165
WNT3A: #1 -0.383; #2 -0.222; #3 -0.555
TUBB6: #1 -0.423; #2 0.31; #3 -0.474; #4 -0.341

Targets above whose target name starts with W or w:
log2 vehicle/camptothecin viability, by gene symbol and reagent
WNT3A: #1 -0.383; #2 -0.222; #3 -0.555

Further results follow:
log2 vehicle/camptothecin viability, by gene symbol and reagent
ADRB1: #1 -0.0178; #2 -0.414; #3 0.0442; #4 -0.773
OLR1: #1 -0.356; #2 0.0356; #3 -0.179; #4 -0.377
PRAG1: #1 -0.0271; #2 -0.559; #3 -0.124; #4 -0.44
OPHN1: #1 -0.0928; #2 0.0358
KIF1A: #1 -0.0174; #2 -0.0303; #3 1.01
IFNGR1: #1 0.0413; #2 -0.199; #3 0.0692; #4 0.0976
PIP5K1A: #1 0.135; #2 -0.131; #3 0.197; #4 -0.345
TRIM62: #1 -0.461; #2 0.341; #3 -0.333
MECP2: #1 -0.151; #2 -0.593; #3 -0.122; #4 -0.278
TRIM36: #1 0.232; #2 -0.0327; #3 -0.232; #4 0.0742; #5 -0.188; #6 -0.127; #7 -0.15; #8 0.324
TREX2: #1 0.212; #2 -0.405; #3 0.931; #4 -0.518
ZNHIT3: #1 -0.0152; #2 0.508; #3 -0.75
